Patent US8357654B2 (Centre National de la Recherche Scientifique, priority 2004, dated 2013)
Non-standard residues stand in square brackets, D forms with d. *: point of attachment. Biotin = O=C1N[C@H]2[C@H](CS[C@H]2CCCCC(=O)*)N1; Boc = CC(C)(C)OC(=O)*

Assay: general procedure: peptide synthesis; 2-chlorotrityl chloride resin (1.3 or 1.6 mmol/g; Senn chemicals); BOP/DIEA (solution couplings); EDC.HCl/HOBt/DIEA (cyclisation)

H-[dA]K(Boc)[dK](Biotin)K(Boc)[dA]K(Boc)-OH (SEQ ID NO: 14)
cyclisation yield (cyclisation step): 83% | step yield (late stage modification step): 95%
